Data from PubChem BioAssay AID493014 (National Center for Advancing Translational Sciences (NCATS), 2011).
Screen size: about 340,000 compounds; about 170 (0.05%) were called active. Inconclusive results, whose numbers are uncertain, are shown with a selection of clear calls. The call rests on the fitted dose curve; in most records, active means well fitted inhibition curve with a large enough effect in the signal ratio, with a control signal flat (not every such curve was filed as active); inconclusive means small, poorly fitted or top-dose-only effect, or effect the other way, or a change in a side signal; inactive means flat fitted curve, though single readings scatter; the % refers to the signal ratio. Where the call is inconclusive, the potency comes from a doubtful curve fit.

Test: qHTS Assay to Find Inhibitors of Chronic Active B-Cell Receptor Signaling;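 on activity change, negative = inhibition: plate controls were basal doxycycline-induced cells for no effect and cells given 10 µM MG132 for full effect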
Details: ABC-DLBCL IkBa-CBG/CBR reporter, luminescence ratio (green luciferase fused to IkBa over red control in TMD8 lymphoma cells), 4 h; activity change, negative = inhibition: at 46.1 µM (top of the series)
Summary of the method: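 Compounds up to 46 uM were incubated four hours with TMD8 cells whose green CBG68 luciferase is fused to IkappaBalpha; red CBR luminescence normalised the signal, and concentration-effect curves were fitted to fusion, red and ratio data.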
Potency means the concentration at half of the fitted maximal effect.

Structure (SMILES)	Potency	activity change, negative = inhibition
CCOC(=O)c1c(C)[nH]c(C(=O)CN(C)CC(=O)Nc2ccccc2C(F)(F)F)c1C	inconclusive: 20.6 µM [falling, single point]	
COc1ccc(NC(C)c2cc(Cl)ccc2O)cc1 (stereo not given)	inconclusive: 29.1 µM [falling, single point]	
O=C(Nc1ccc2nc(-c3cccnc3)[nH]c2c1)C1CCCCC1		inconclusive: 20.9%
COc1ccc(C2CC(c3ccccc3)=NN2C(=O)COC(=O)COc2ccccc2)cc1 (stereo not given)		inconclusive: 0.923%
COc1ccc(-n2c(O)c(/C=N/NS(=O)(=O)c3ccc(C)c([N+](=O)[O-])c3)c3ccccc3c2=O)cc1OC		inactive: 1.65%
COC(=O)CSC1=C(C#N)C(c2ccc(F)cc2)CC(=O)N1 (stereo not given)		inactive: -2.73%
CCOC(=O)c1cnc(SCC(=O)N2CCOCC2)nc1N		inconclusive: -11.6%
CNC(=O)C1C(=S)NC(N)=C(C#N)C1c1ccccc1 (stereo not given)		inconclusive: -2.59%
Cc1ccccc1NC(=O)CNc1ccc(Cl)c(C(F)(F)F)c1	inconclusive: 32.6 µM [falling, partial curve, poor fit]	
N=c1n(CCN2CCCCC2)c2ccccc2n1CC(=O)c1ccc(Cl)c(Cl)c1	inconclusive: 6.31 µM [falling, full curve]	
CC(=O)c1coc2ccc(OCC(=O)O)cc12		inconclusive: 8.99%
COc1ccc2nc(-c3cccc(N)c3)[nH]c2c1	inconclusive: 20.6 µM [falling, partial curve]	
Cc1nc(Nc2ccc(Cl)cc2Cl)sc1C(=O)Nc1ccccc1	inconclusive: 25.9 µM [rising, single point]	
CCOc1ccccc1C(=O)NC1CC2CCCC(C1)N2Cc1ccc(C)cc1 (stereo not given)		inactive: -0.383%
CCN(c1cccc(C)c1)S(=O)(=O)c1ccc2[nH]cc(C(=O)NCCCOC)c(=O)c2c1		inactive: 19.5%
COc1cc2c3c(c1OC)C1(C=CC(=NNC(N)=O)C=C1)CC3N(C(C)=O)CC2 (stereo not given)		inconclusive: 0.325%
O=C(Nc1cnccn1)Nc1ccccc1F		inconclusive: 0.625%
COC(=O)c1cc(C(=O)OCC(=O)NC(=O)c2ccccc2)cc([N+](=O)[O-])c1		inactive: 0.528%
COc1cccc(/C=C/C(=O)OCC(=O)Nc2ccc(Cl)c(S(=O)(=O)N(C)C)c2)c1		inconclusive: 0.931%
COc1ccc(CN2CCN(S(=O)(=O)c3ccccc3)CC2)cc1Br	inconclusive: 10.3 µM [rising, partial curve, poor fit]	
COC(=O)[C@]1(C)CCC[C@@]2(C)C3CC[C@@]4(C)C[C@]3(CCC21)CC(=O)N4 (stereo not given in full)		inconclusive: -4.3%
CN1C(=O)C(CC(=O)NCCc2ccccc2)N(NC(=O)c2cccc(F)c2)C1=S (stereo not given)		inconclusive: 0.89%
CCCc1c(C(=O)Nc2ccc(OC)cc2)cnn1-c1ccccc1		inconclusive: 6.11%
Clc1cccc(-n2ncc3c(N4CCCCC4)ncnc32)c1		inconclusive: 4.22%
Nc1cc(S(=O)(=O)Nc2cc(Cl)ccc2Cl)ccc1N1CCOCC1		inactive: 0.656%
Cc1cccc(NC(=O)c2ccccc2OCC(=O)c2ccc(F)cc2)c1		inconclusive: 6.39%
Cc1cc(C(=O)Nc2ccccc2N2CCOCC2)c2ccccc2n1	inconclusive: 32.6 µM [falling, single point]	

Structure (SMILES)	Potency	activity change, negative = inhibition
O=C(CNC(=O)c1ccccc1F)NCCN1C(=O)S/C(=C\c2ccccc2Cl)C1=O		inconclusive: -4.22%
O=C(Nc1ccc(O)cc1C(=O)O)c1ccc(NC(=O)c2ccco2)cc1	inconclusive: 29.1 µM [falling, single point]	
COc1ccc(CNC(=O)C2CC(c3cccc(OC)c3)=NO2)cc1 (stereo not given)		inconclusive: 3.34%
C#Cc1ccc([C@@H]2C=C(C(=O)NCc3nc4ccccc4[nH]3)O[C@H](OCC)[C@H]2CCCO)cc1		inconclusive: -0.858%
CCOC(=O)c1sc2ccc(S(=O)(=O)N3CCCCC3)cc2c1N		inconclusive: -0.0934%
Cc1ccc(S(=O)(=O)NC(C)CCc2ccccc2)cc1C(N)=O (stereo not given)		inactive: -1.76%
COc1cccc(/C=N/NC(=O)c2cc(-c3cccn3C)n[nH]2)c1O		inactive: -6.34%
COc1ccccc1N1CCN(C(C)C(=O)Nc2ccc(S(=O)(=O)N3CCOCC3)cc2)CC1 (stereo not given)		inconclusive: 4.67%
COC(=O)c1ccccc1NC(=O)Cn1c(=O)n(-c2cccc(OC)c2)c(=O)c2c(C)c(C(=O)N(C)C)sc21	inconclusive: 12.6 µM [falling, partial curve, poor fit]	
CC(NC(=O)CN1C(=O)NC(Cc2ccccc2)(Cc2ccccc2)C1=O)C12CC3CC(CC(C3)C1)C2 (stereo not given)		inconclusive: 4.9%
COc1cc(/C=N\NC(=O)c2ccccc2F)ccc1Oc1ccc([N+](=O)[O-])cn1	inconclusive: 35.5 µM [falling, single point]	
CC(C)C(=O)Nc1cccc(NC(=O)c2cccc(Br)c2)c1		inconclusive: -20.8%
CC1(C)CC(=O)C2=C(C1)N(c1ccccc1C#N)C(N)=C(C#N)C2c1cccs1 (stereo not given)	inconclusive: 4.11 µM [falling, full curve, poor fit]	
COc1ccc(CSc2ncn[nH]2)cc1[N+](=O)[O-]		inconclusive: 3.37%
Cc1cccc(NC(=O)CSc2ncnc3nc[nH]c23)c1C		inconclusive: -0.477%
CCOC(=O)c1cc(-c2ccccc2)n(-c2cccc(C(=O)Nc3ccc(OC)cc3)c2)c1C		inactive: 6.04%
CCO/N=C(/C)c1c(O)cc(C(C)(C)C)n(-c2ccccc2)c1=O		inconclusive: 6.3%
COc1ccccc1NC=C1C(=O)OC2(CCCCC2)OC1=O		inconclusive: 5.97%
COc1ccc(-n2c(N)c(C(=O)NCc3ccco3)c3nc4ccccc4nc32)cc1OC		inconclusive: -0.598%
CCOc1ccc(NC(=S)N(CCOC)C2CCN(C(C)C)CC2)cc1		inactive: -7.5%
CCCc1nc2sc3c(c2c(=O)n1NC(=O)c1ccco1)CC(C)(C)OC3		inactive: 4.27%
COc1ccc(NC(=O)CSCC(=O)Nc2nnc(C3CC3)s2)cc1		inconclusive: 2.04%
CSc1ncc(Cl)c(C(=O)Nc2ccccc2C)n1		inconclusive: 1.7%
COc1cc(Cl)cc(/C=C/c2ccc3ccccc3n2)c1OC(C)=O		inconclusive: 2.78%
COc1cccc(OCC(=O)Nc2ccccc2C(N)=O)c1	inconclusive: 14.6 µM [falling, partial curve]	
CC1CC(CCN)(c2ccccc2)C(C)CN1C (stereo not given)	inconclusive: 22.4 µM [falling, partial curve, poor fit]	
Cn1ccc2cc(-c3ccc4ncnc(NCc5cccs5)c4c3)ccc21	inconclusive: 20.6 µM [falling, single point]	

5 entries out of the list, arranged by count of non-hydrogen atoms, largest number first.
Structure (SMILES)	Potency	activity change, negative = inhibition
CCOC(=O)c1cc(-c2ccccc2)n(-c2cccc(C(=O)Nc3ccc(OC)cc3)c2)c1C		inactive: 6.04%
CCCc1nc2sc3c(c2c(=O)n1NC(=O)c1ccco1)CC(C)(C)OC3		inactive: 4.27%
CCOc1ccc(NC(=S)N(CCOC)C2CCN(C(C)C)CC2)cc1		inactive: -7.5%
COc1ccc(NC(=O)CSCC(=O)Nc2nnc(C3CC3)s2)cc1		inconclusive: 2.04%
CSc1ncc(Cl)c(C(=O)Nc2ccccc2C)n1		inconclusive: 1.7%

Next part

Structure (SMILES)	Potency	activity change, negative = inhibition
CC1(CC(=O)N/N=C/c2cc([N+](=O)[O-])c(O)cc2O)OCCO1		inactive: -0.131%
O=c1ccc2[n+]([O-])c3ccc(O)cc3oc-2c1	inconclusive: 5.01 µM [rising, partial curve]	
Cc1ccc(N(CC(=O)NC2CCCC2)C(=O)CCC(=O)Nc2nccs2)c(C)c1		inactive: -0.346%
COc1ccccc1OCC(=O)Nc1cccc(-c2nc3ccccc3o2)c1		inconclusive: 5.37%
O=C(Cn1c(-c2ccccn2)nc2ccccc21)NCCN1CCOCC1		inconclusive: 3.81%
Cc1cc(C)nc(NS(=O)(=O)c2ccc(N/C=C\C(=O)c3cccs3)cc2)n1	inconclusive: 35.5 µM [falling, single point]	
C/C(=N\NC(=S)Nc1cccc(C)c1)c1ccccc1	inconclusive: 6.31 µM [falling, partial curve, poor fit]	
O=c1ccnc(NCCc2ccccc2)[nH]1		inactive: 4.37%
Cc1nc(SCc2nc3ccc(Cl)cc3[nH]2)c2oc3ccccc3c2n1		inconclusive: -0.2%
O=C(N/N=C/c1ccccc1O)C1(O)c2ccccc2-c2ccccc21		inactive: -0.0288%
CC(C)C[C@H](NC(=O)N1CCCCCC1)C(=O)O		inconclusive: 13.8%
Cc1onc(-c2ccccc2)c1C(=O)OCCOc1ccc([N+](=O)[O-])cc1[N+](=O)[O-]		inconclusive: -0.172%
CC(=O)Nc1ccc(NC(=O)COC(=O)c2ccc(C)s2)cc1		inconclusive: 14.1%
O=C(CCCc1ccccc1)Nc1cccnc1		inconclusive: 20.8%
O=[N+]([O-])c1ccc(N/N=C\c2cccn2-c2ccccc2)nc1		inconclusive: 11%
CCCc1cc(NCCCN(C)C)n2c(nc3ccccc32)c1C#N		inconclusive: 4.2%
O=C1CN(C(=O)COc2ccc(Cl)cc2Cl)c2ccccc2N1		inactive: 2.39%
CCOc1ccc(NC(=S)c2ccc3ccccc3n2)cc1	inconclusive: 5.62 µM [falling, partial curve, poor fit]	
Cc1cc(C)c(NC(=O)CNC(=O)c2ccccc2OCc2c(C)noc2C)c(C)c1		inconclusive: 9.78%
COC(=O)c1ccccc1SCc1csc(C)n1		inconclusive: 5.11%
COc1cccc(C2C(=O)c3ccccc3C2=O)c1		inconclusive: -4.95%
COc1ccc(NS(=O)(=O)c2cccc(NC(=O)CCS(=O)(=O)c3ccccc3)c2)cc1		inconclusive: -11.9%
CCNc1nc(NC(C)C)nc(N(C#N)CCOc2ccc(Cl)cc2Cl)n1	inconclusive: 7.31 µM [rising, partial curve, poor fit]	
CCCCOc1ccc(C(=O)NCCOc2cccc(OC)c2)cc1		inconclusive: -1.03%
CCOc1ccc(OCc2ccc(C(=O)O)o2)cc1	inconclusive: 4.11 µM [falling, partial curve]	
Cc1ccc(S(=O)(=O)Nc2ccc(C(=O)N3CCN(c4ccccc4O)CC3)cc2)cc1[N+](=O)[O-]		inconclusive: -8.76%
